No constants are given. Whether binding was seen depends on the method and setting. In cells and extracts the contact can be indirect. For some assays here: Binding can be weak; no strength is given. Tags and fused reporters may be left off the sequences shown.

Results on two molecules are retold here after PMC10781510.

Assay [1] has as its target T1, full-length GASZ fused to the N-terminal half of YFP (mouse) (UniProt Q8VD46).
T1 sequence: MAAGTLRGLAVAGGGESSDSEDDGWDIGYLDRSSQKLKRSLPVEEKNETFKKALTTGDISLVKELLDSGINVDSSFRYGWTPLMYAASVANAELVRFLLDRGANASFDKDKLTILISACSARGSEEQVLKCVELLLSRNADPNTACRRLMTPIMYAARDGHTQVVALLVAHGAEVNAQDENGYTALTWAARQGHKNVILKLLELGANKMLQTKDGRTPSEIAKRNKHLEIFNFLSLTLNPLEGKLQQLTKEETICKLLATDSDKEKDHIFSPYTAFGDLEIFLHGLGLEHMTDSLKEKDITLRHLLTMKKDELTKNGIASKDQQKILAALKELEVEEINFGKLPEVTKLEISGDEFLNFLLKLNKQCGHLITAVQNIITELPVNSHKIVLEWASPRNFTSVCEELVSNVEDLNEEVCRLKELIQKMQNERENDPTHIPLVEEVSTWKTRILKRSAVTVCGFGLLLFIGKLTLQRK
As to the kind of experiment: split reporter; bimolecular fluorescence complementation with N- and C-terminal halves of YFP fused to GASZ constructs, cotransfected into cells.

Assay [2] concerns the target NYFP-GASZ-ΔMLS (mouse). The assay is described as above.

In the case of “GASZ-ΔMLS fused to the C-terminal half of YFP (mouse) (domain or fragment)”, the binding entry in assay [1] was “binds”.

B1: CYFP-GASZ-Δ345/401 (protein, UniProt Q8VD46)
chain: MAAGTLRGLAVAGGGESSDSEDDGWDIGYLDRSSQKLKRSLPVEEKNETFKKALTTGDISLVKELLDSGINVDSSFRYGWTPLMYAASVANAELVRFLLDRGANASFDKDKLTILISACSARGSEEQVLKCVELLLSRNADPNTACRRLMTPIMYAARDGHTQVVALLVAHGAEVNAQDENGYTALTWAARQGHKNVILKLLELGANKMLQTKDGRTPSEIAKRNKHLEIFNFLSLTLNPLEGKLQQLTKEETICKLLATDSDKEKDHIFSPYTAFGDLEIFLHGLGLEHMTDSLKEKDITLRHLLTMKKDELTKNGIASKDQQKILAALKELEVEEINFGKLPCEELVSNVEDLNEEVCRLKELIQKMQNERENDPTHIPLVEEVSTWKTRILKRSAVTVCGFGLLLFIGKLTLQRK
As to B1, in assay [2], the binding result is given as “no binding”.
